This is one part of the list. Further columns of the screen follow, without active or inactive calls. Compounds called inactive in the main read-out are mostly missing here. Potencies come from curve fits of mixed quality, noted in brackets.
Assay: qHTS Assay for Lipid Storage Modulators in Drosophila S3 Cells;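 on cell number change: cells counted by Cell Tracker Red CMTPX staining in the red channel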
Conditions: BODIPY lipid droplet fluorescence, 18-24 h; for cell number change: measured here: cell count max response, cells fed with added oleic acid
In short: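 Laser-scanning cytometry quantifies lipid droplet accumulation (500–530 nm total intensity; droplet/cell object ratio) in oleic acid-fed (400 uM added) Drosophila S3 cells treated with a concentration series. 20 uM Triacsin C defined 100% inhibition.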

[1] = measured here: lipid fluorescence (Fed channel) AC50, cells fed with added oleic acid
[2] = measured here: cell number channel AC50, cells fed with added oleic acid

CCCc1cc(=O)oc2c(C)c(OCC(=O)N3C[C@H]4C[C@@H](C3)c3cccc(=O)n3C4)ccc12
cell number change: 23%

O=C(Nc1ccc(F)cc1F)c1cccc(C(=O)Nc2ccc(F)cc2F)n1
cell number change: -3.47%
AC50 [1]: 29.1 µM [rising, single point]

Cc1ccc(C(=O)Nc2ccccc2C(=O)O)cc1NC(=O)COc1c(C)cccc1C
cell number change: -11.7%
AC50 [1]: 29.1 µM [falling, single point]

COc1ccc(S(=O)(=O)NCCc2csc(-c3cccnc3)n2)cc1
AC50 [1]: 0.058 µM [rising, full curve, poor fit]

O=C1CC(N2CCN(c3ccc(Cl)cc3)CC2)C(=O)N1c1ccc(F)cc1 (stereo unspecified)
cell number change: -15.2%
AC50 [1]: 6.51 µM [rising, single point]

Cc1ccc(C(=O)Nc2cc(C(F)(F)F)ccc2-n2cncn2)o1
cell number change: 10%
AC50 [1]: 3.66 µM [rising, full curve, poor fit]

Cc1ccc(C(C)C)c(OCC(O)CN(C)Cc2ccccc2)c1 (stereo unspecified)
cell number change: -66.3%
AC50 [2]: 18.4 µM [falling, single point]
AC50 [1]: 18.4 µM [falling, single point]

COCCNC(=O)C(C)Oc1ccc(Cl)cc1Cl (stereo unspecified)
cell number change: 31.3%
AC50 [2]: 0.0146 µM [rising, full curve, poor fit]

COc1cc(C(=O)N2CCCC(c3nc(-c4cccs4)no3)C2)cc(OC)c1OC (stereo unspecified)
AC50 [2]: 2.06 µM [falling, partial curve]

CCOC(=O)N1CCN(Cc2nnc(-c3cccc(Br)c3)o2)CC1
cell number change: -18.4%
AC50 [2]: 0.206 µM [falling, full curve, poor fit]

Cc1ccc(C)c(CN2CCCNC2=O)c1
cell number change: -114%
AC50 [2]: 5.17 µM [rising, single point]
AC50 [1]: 6.51 µM [rising, single point]

CC(C(=O)Nc1ccc(N2CCOCC2)cc1)N1C(=O)c2ccccc2C1=O (stereo unspecified)
cell number change: -131%
AC50 [2]: 18.4 µM [falling, single point]
AC50 [1]: 29.1 µM [falling, single point]

COc1ccc(OC)c(NC(=O)CSc2nnc(CCCO)n2-c2ccccc2)c1
cell number change: 153%
AC50 [2]: 11.6 µM [rising, partial curve]

C/C=C/C=[N+](\[O-])C(C)/C(=N/O)c1ccc(F)cc1 (stereo unspecified)
cell number change: -12.2%

CCOC(=O)N1CCC(NC(=O)C(NS(=O)(=O)c2cccc3nsnc23)c2ccccc2)CC1 (stereo unspecified)
cell number change: -5.33%
AC50 [2]: 0.0058 µM [falling, full curve, poor fit]

COc1ccc(C2CC(c3cccs3)=NN2C(=O)CCC(=O)O)cc1OC (stereo unspecified)
cell number change: 23.9%
AC50 [1]: 29.1 µM [falling, partial curve]

O=C(N/N=C\C=C\c1ccc2c(c1)OCO2)C1COc2cc3ccccc3cc2O1 (stereo unspecified)
cell number change: -22.5%
AC50 [2]: 0.651 µM [falling, single point]

CCc1ccc2oc(C(=O)Nc3ccc(S(N)(=O)=O)cc3)c(C)c2c1
cell number change: 52.2%
AC50 [2]: 14.6 µM [rising, partial curve, poor fit]
AC50 [1]: 8.2 µM [rising, partial curve]

CCCCN(CC)CCNC(=O)c1ccc2c(Cl)c3c(nc2c1)CCC3
cell number change: -18.3%
AC50 [1]: 23.1 µM [rising, single point]

CCOC(=O)c1oc2c(c1C)C(=O)CCC2
cell number change: 75.9%
AC50 [2]: 18.4 µM [rising, single point]

O=C1NN(c2ccc(Br)cc2)C(=O)/C1=C\c1ccc(O)cc1O
cell number change: -19.1%

Cc1onc(-c2ccccc2Cl)c1C(=O)OCC(=O)Nc1ccc2c(c1)OCO2
cell number change: -15.6%

COc1cccc(CC(=O)Nc2cc(C(F)(F)F)ccc2N2CCCC2)c1
AC50 [1]: 0.82 µM [rising, full curve]

O=S(=O)(c1cccc(-c2cn3cccnc3n2)c1)N1CCCCCC1
cell number change: -17.4%
AC50 [1]: 2.06 µM [rising, full curve]

CCn1c2ccccc2c2cc(NC(=O)COc3ccc(OC)cc3)ccc21
cell number change: 4.02%
AC50 [1]: 29.1 µM [falling, single point]

CCn1c(SCC(=O)N2CCCC2)nnc1-c1ccc(N)cc1
cell number change: 21.8%
AC50 [2]: 0.164 µM [rising, full curve, poor fit]

O=C(NNC1CC(=O)N(c2cccc(Cl)c2)C1=O)c1cccs1 (stereo unspecified)
AC50 [1]: 9.2 µM [rising, partial curve]

CN(CC(=O)Nc1ccc(F)cc1Cl)Cc1cccs1
cell number change: -3.91%

CCOC(=O)n1cc(-c2cnc(CNC(=O)C(C)(c3ccccc3)c3ccccc3)o2)c2ccccc21
cell number change: 6.57%
AC50 [1]: 1.3 µM [rising, partial curve]

COc1ccc(NC(=O)C/C(C)=N/NC(=O)CCc2ccccc2)c(OC)c1
AC50 [2]: 6.51 µM [rising, single point]

CN(C)N1C(N)=C(C#N)C(c2ccc(Br)cc2)C2=C1CCCC2=O (stereo unspecified)
cell number change: 8.33%

CC(C)Cn1c(SCC(=O)NC2CCCc3ccccc32)nc(O)cc1=O (stereo unspecified)
cell number change: -1.08%
AC50 [1]: 6.51 µM [rising, single point]

O=C(NC1CCCCCC1)C1Cc2ccccc2CN1C(=O)c1ccco1 (stereo unspecified)
cell number change: -22.7%
AC50 [1]: 29.1 µM [falling, single point]

CN(CC(=O)NC(=O)NC1CCCCC1)CC(=O)Nc1ccc(Cl)cc1
cell number change: -19.9%
AC50 [1]: 0.82 µM [falling, partial curve, poor fit]

CC(=O)Nc1ccc(N(C(=O)c2ccco2)C(C(=O)NC2CCCC2)c2ccc(N3CCOCC3)cc2)cc1 (stereo unspecified)
cell number change: 6.01%
AC50 [1]: 0.0184 µM [rising, full curve, poor fit]

COc1cc(CCC(=O)N2CCN(c3ccc([N+](=O)[O-])cc3)CC2)cc(OC)c1OC
AC50 [1]: 2.91 µM [rising, single point]

CCOC(=O)c1c(NC(=O)c2cccs2)sc(C)c1C
cell number change: -11.7%
AC50 [1]: 0.92 µM [rising, partial curve, poor fit]

O=C(NCCc1ccc(O)c(O)c1)C1COc2ccccc2O1 (stereo unspecified)
cell number change: 31.4%
AC50 [2]: 2.59 µM [rising, partial curve, poor fit]
AC50 [1]: 29.1 µM [rising, single point]

CCCNCc1cc(OCC)c(OCC(=O)Nc2ccccc2)cc1Br
cell number change: 146%

Cc1ccsc1C1Nc2ccc3ncccc3c2C2=C1C(=O)CC(C)(C)C2 (stereo unspecified)
cell number change: 18.5%

Reference: PubChem BioAssay AID2685 (National Center for Advancing Translational Sciences (NCATS), 2010)
